{
  "source": "patent US8518874B2",
  "about": "“HCV inhibitors” (Virobay, Inc., priority 2005, dated 2013)",
  "note": "Some of these results come from one statement about several compounds together. At least one compound was matched to its structure with a doubt left.",
  "data": [
    {"test_system": "HCV replication (HCV replicon RNA in Huh7/Clone A cells)", "assay": "HCV Replicon Assay", "type": "cell-based, Hepatitis C virus", "settings": "HCV replicon-containing Huh7/Clone A cells, 48 hours incubation, replicon RNA by RT-qPCR normalized to total RNA; read-out: IC50 for inhibition of HCV replication", "description": "The HCV replicon assay is a cell-culture system that mimics in vivo HCV replication and provides a system to study HCV replication in vitro. It was created by transfecting cloned viral RNA derived from a consensus HCV genomic sequence into human Huh7 hepatoma cells that are semi-permissive for viral RNA production (Lohmann V., Korner F., Koch J.-O., Herian U., Theilmann L. and Bartenschlager R. (1999). Replication of subgenomic Hepatitis C virus RNAs in a hepatoma cell line. Science 285, 110-113 and Blight K. J., Kolykhalov A. A. and Rice C. M. (2000). Efficient initiation of HCV RNA Replication in cell culture. Science 290, […]). These transfected cell lines contain a subgenomic HCV RNA genome that includes (1) the HCV 5′NTR fused to 12 amino acids of the capsid coding region, (2) the neomycin phosphotransferase gene (Neo) as a selectable marker, (3) the internal ribosome entry site (IRES) from encephalomyocarditis virus (EMCV) that directs translation of HCV non-structural proteins (variously NS2 or NS3 to NS5B), and (4) the 3′ NTR. Replicon-containing cells autonomously and persistently replicate HCV RNA that can be measured quantitatively by real-time qPCR. Therefore, the replicon system facilitates quantitative assessment of anti-viral activity by monitoring changes in HCV RNA replication in a cell-based assay.\nHCV replicon-containing cells (Huh7/Clone A) were routinely maintained in Clone A growth medium (DMEM medium [Invitrogen], supplemented with 10% Fetal Bovine Serum, 1% Non Essential Amino Acids and 1 g/L G418). Test compounds were dissolved in dimethyl sulfoxide (DMSO) to make 200× stock solutions for all doses prior to treatment.\nFor the HCV replicon assay, Huh7/Clone A cells were trypsinized from culture flasks, seeded in 1 ml of Clone A growth medium without G418 at 4×10^4 cells per well in 24-well plates and incubated at 37° C. in a humidified CO2 (5%) incubator overnight. Following overnight incubation, compound solutions were added into wells in the same volume (5 μl of 200× compound stock per well) to give a final DMSO concentration of 0.5%. Three wells on each plate supplemented with 5 μl of DMSO served as untreated controls. […]\nTotal RNA eluted in 130 μl of RNase-free dH2O was quantitated by the RiboGreen Assay according to the supplier's protocol (Molecular Probe). […] RNA samples in the black microplate were mixed with 95 μl of diluted RiboGreen:reagent (1:250 dilution in TE buffer) and sample fluorescence was measured using a fluorescence microplate reader at standard fluorescein wavelengths (excitation ˜480 nm, emission ˜520 nm). […]\nTaqMan quantitative PCR (RT-qPCR) was used to quantitate the amount of HCV replicon RNA in each sample. […]", "units": {"IC50": "µM"}, "values": [
      {"smiles": "CCCC(NC(=O)C1CC(Oc2cc(C)nc3cc(OC)ccc23)CN1C(=O)C(NC(=O)NC(C)(C)C)C(C)(C)C)C(=O)C(=O)NC1CC1", "note": "(stereo not shown) [Compound 15, 1-[2-(3-tert-Butyl-ureido)-3,3-dimethyl-butyryl]-4-(7-methoxy-2-methylquinolin-4-yloxy)-pyrrolidine-2-carboxylic acid (1-cyclopropylaminooxalylbutyl)-amide]", "IC50": "< 10"},
      {"smiles": "CCC[C@H](NC(=O)[C@@H]1C[C@@H](Oc2cc(-n3cccn3)nc3cc(OC)ccc23)CN1C(=O)[C@@H](NC(=O)NC(C)(C)C)C(C)(C)C)C(=O)C(=O)NC1CC1", "note": "[Compound 1]", "IC50": "< 10"},
      {"smiles": "CCC[C@H](NC(=O)[C@@H]1C[C@@H](Oc2nccc3cc(OC)ccc23)CN1C(=O)[C@@H](NC(=O)NC(C)(C)C)C(C)(C)C)C(=O)C(=O)NC1CC1", "note": "[Compound 9, 1-[2S-(3-tert-Butyl-ureido)-3,3-dimethyl-butyryl]-4R-(6-methoxy-isoquinolin-1-yloxy)-pyrrolidine-2S-carboxylic acid (1S-cyclopropylaminooxalyl-butyl)-amide]", "IC50": "< 10"},
      {"smiles": "COc1ccc2c(O[C@@H]3CC(C(=O)N[C@@H](CC4CCC4)C(=O)C(=O)NC4CC4)N(C(=O)[C@@H](NC(=O)NC(C)(C)C)C(C)(C)C)C3)cc(-n3cccn3)nc2c1", "note": "(stereo partly drawn) [Compound 2, 1-[2S-(3-tert-butylureido)-3,3-dimethylbutyryl]-4R-(7-methoxy-2-pyrazol-1-ylquinolin-4-yloxy)-pyrrolidine-2-carboxylic acid (1S-cyclobutylmethyl-2-cyclopropylcarbamoyl-2-oxoethyl)amide]", "IC50": "< 10"}
    ]}
  ]
}
